Test: Electrochemical corrosion study (Gamry electrochemical corrosion measurement technique)
Conditions: for Corrosion Rate after 48 hrs (mpy): inhibitor about 25 ppm, unpassivated mild steel coupon, about 120° F. (50° C.), pH about 8.0, 500 rpm
Procedure: The electrochemical corrosion study was carried out using the Gamry electrochemical corrosion measurement technique. The purpose of the corrosion measurement was to evaluate the performance of the synthesized corrosion inhibitor compositions against Carbon Steel Metallurgy corrosion inhibition.
Experimental conditions used during the corrosion inhibition experiment were: • a) Corrosion rate KPI<3 mpy for Carbon Steel Metallurgy; • b) Gamry Electrochemical Instrument and Pine Rotator; • c) 800 mL test solution into a 1 L glass cell; • d) Dosage of Inhibitor: about 25 ppm; • e) Mild Steel cylindrical coupon polished using 600 SiC polishing paper; • f) No pre-passivation: unpassivated coupons were used directly after polishing; • g) Temperature: about 120° F. (50° C.); • h) pH=about 8.0; and • i) RPM of Pine Rotator: 500 rpm.

| Structure (SMILES) | corrosion rate (carbon steel corrosion inhibition), stated in text for FIG. 1 / FIG. 2 (conditions as outlined (about 25 ppm, unpassivated mild steel coupon, 50° C., pH about 8.0)) | corrosion rate under high hardness and high chloride water chemistry conditions (high hardness and high chloride water chemistry, FIG. 3) | appearance of the water chemistry (cloudiness / white precipitate) after heating (high hardness and high chloride water chemistry, after heating for 48 hours) | Corrosion Rate after 48 hrs (mpy) |
| --- | --- | --- | --- | --- |
| CCCCCC1=NCCN1CCNCCC(=O)O [No. 5, 3-((2-(2-pentyl-4,5-dihydro-1H-imidazol-1-yl)ethyl)amino)propanoic acid] | < 5 mpy | < 1 mpy | does not become cloudy or result in any white precipitate | 4.01 mpy |
| CCCCCCCC1=NCCN1CCNCCC(=O)O [No. 6, 3-((2-(2-heptyl-4,5-dihydro-1H-imidazol-1-yl)ethyl)amino)propanoic acid] | – | – | – | 8.82 mpy |
| CCCCCCCCCCCC1=NCCN1CCNCCC(=O)O [No. 7, 3-((2-(2-undecyl-4,5-dihydro-1H-imidazol-1-yl)ethyl)amino)propanoic acid] | – | – | – | 5.62 mpy |
